Experimental data: PubChem BioAssay AID1259254 (NCATS, 2017)

Test: 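Genome-wide screen for genes that prevent DNA re-replication in cancer cells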 (primary screen)
Cell system: human HCT116 colorectal cancer cells
Reagents: single siRNA against human genes
Duration: 3 days
Measured: 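Imaged Hoechst DNA stain sorts each cell into a cycle phase by DNA amount; per plate, G2 fraction set to 0% for non-targeting and 100% for GMNN siRNA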
Reading the numbers: G2 robust z-score and G2 cells, % of GMNN control: higher = more G2 cells, more excess DNA replication
Call rule: 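An siRNA counts as active if its G2 robust z-score lies at least 5 MADs above the screen median; here such calls match roughly 38% of GMNN control or more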
The whole screen tested about 59,000 reagents; below is an unselected part. Of all reagents, about 1,550 (2.6%) were called active. 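G2 share is only a proxy for re-replication; each gene was hit by three separate siRNAs, and active genes were retested.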 Reagents against one gene are numbered here. Not all columns of the deposit are shown. Not stated in the record: the amount of reagent.

Depletion of MAP3K10 #1 gave: G2 robust z-score 1.54; G2 cells, % of GMNN control 13.8; inactive.
For MAP3K10 #2, the values are G2 robust z-score -1.38; G2 cells, % of GMNN control -6.74; inactive.
MAP3K10 #3 gave G2 robust z-score -0.615; G2 cells, % of GMNN control -1.36; inactive.
Depletion of PSMD7 #1 came out at: G2 robust z-score -0.434; G2 cells, % of GMNN control -0.0885; inactive.
Knock-down of PSMD7 #2 came out at: G2 robust z-score 1.08; G2 cells, % of GMNN control 10.6; inactive.
After knock-down of PSMD7 #3 the results were G2 robust z-score 2.31; G2 cells, % of GMNN control 19.2; inactive.
After knock-down of NFKBIA #1 the results were G2 robust z-score 2.72; G2 cells, % of GMNN control 22.1; inactive.
Depletion of NFKBIA #2 came out at: G2 robust z-score 0.987; G2 cells, % of GMNN control 9.91; inactive.
Silencing of NFKBIA #3 gave: G2 robust z-score -0.943; G2 cells, % of GMNN control -3.66; inactive.
EFHC2 #1 gave G2 robust z-score 2.07; G2 cells, % of GMNN control 17.5; inactive.
After knock-down of EFHC2 #2, the record shows G2 robust z-score 0.86; G2 cells, % of GMNN control 9.02; inactive.
For EFHC2 #3, the values are G2 robust z-score -1.6; G2 cells, % of GMNN control -8.31; inactive.
Silencing of NUBP2 #1 resulted in: G2 robust z-score 0.686; G2 cells, % of GMNN control 7.8; inactive.
After knock-down of NUBP2 #2, the record shows G2 robust z-score -0.703; G2 cells, % of GMNN control -1.98; inactive.
After knock-down of NUBP2 #3 the results were G2 robust z-score -0.0139; G2 cells, % of GMNN control 2.87; inactive.
With knock-down of RBBP5 #1, the screen gave G2 robust z-score -0.158; G2 cells, % of GMNN control 1.85; inactive.
Silencing of RBBP5 #2 resulted in: G2 robust z-score -0.323; G2 cells, % of GMNN control 0.698; inactive.
Knock-down of RBBP5 #3 came out at: G2 robust z-score 3.49; G2 cells, % of GMNN control 27.5; inactive.
With knock-down of HNMT #1 the results were G2 robust z-score -0.31; G2 cells, % of GMNN control 0.788; inactive.
Depletion of HNMT #2 gave: G2 robust z-score 1.68; G2 cells, % of GMNN control 14.8; inactive.
With knock-down of HNMT #3, the record shows G2 robust z-score -1.08; G2 cells, % of GMNN control -4.65; inactive.
OR5J2 #1 showed G2 robust z-score -1.02; G2 cells, % of GMNN control -4.2; inactive.
OR5J2 #2 scored G2 robust z-score -0.293; G2 cells, % of GMNN control 0.907; inactive.
Depletion of OR5J2 #3 gave: G2 robust z-score -0.931; G2 cells, % of GMNN control -3.58; inactive.
After knock-down of RNF19A #1, the record shows G2 robust z-score -0.0437; G2 cells, % of GMNN control 2.66; inactive.
Against RNF19A #2 the deposit lists G2 robust z-score 1.89; G2 cells, % of GMNN control 16.3; inactive.
RNF19A #3 showed G2 robust z-score -0.894; G2 cells, % of GMNN control -3.32; inactive.
With knock-down of NISCH #1 the results were G2 robust z-score -0.012; G2 cells, % of GMNN control 2.88; inactive.
After knock-down of NISCH #2 the results were G2 robust z-score -0.828; G2 cells, % of GMNN control -2.86; inactive.
For NISCH #3, the entry reads G2 robust z-score -0.118; G2 cells, % of GMNN control 2.14; inactive.
